In this assay the target is T1, ETS proto-oncogene 1 (human (endogenous in HUVECs)) (UniProt P14921).
T1 sequence: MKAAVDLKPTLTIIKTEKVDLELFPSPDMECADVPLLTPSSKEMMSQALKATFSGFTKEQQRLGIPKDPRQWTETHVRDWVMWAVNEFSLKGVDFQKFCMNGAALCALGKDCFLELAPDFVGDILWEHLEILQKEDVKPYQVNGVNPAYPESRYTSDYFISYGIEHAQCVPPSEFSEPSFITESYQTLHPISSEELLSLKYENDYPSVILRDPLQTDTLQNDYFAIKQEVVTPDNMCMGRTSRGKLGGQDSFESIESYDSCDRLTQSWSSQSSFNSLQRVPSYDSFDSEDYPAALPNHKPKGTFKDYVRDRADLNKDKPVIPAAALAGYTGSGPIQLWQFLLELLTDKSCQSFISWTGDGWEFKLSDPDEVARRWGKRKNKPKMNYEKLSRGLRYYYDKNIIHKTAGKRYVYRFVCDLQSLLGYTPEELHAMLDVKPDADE
The assay can be described thus: co-IP; endogenous IP from HUVEC cell protein extracts (lysis buffer with PMSF); specific primary antibodies and protein A/G Dynabeads, 4 °C for 12 h; input, IgG and IP extracts analysed by Western blot. A general note: A western blot detects proteins with antibodies after separation by electrophoresis.

No constants are given. Whether binding was seen depends on the method and setting. Binding seen in cells or lysates may run through a third protein. Some entries that bind do so weakly or less than the wild type.

B1: lysine methyltransferase 5A (protein, UniProt Q9NQR1 1-393)
chain: MGEGGAAAALVAAAAAAAAAAAAVVAGQRRRRLGRRARCHGPGRAAGGKMSKPCAVEAAAAAVAATAPGPEMVERRGPGRPRTDGENVFTGQSKIYSYMSPNKCSGMRFPLQEENSVTHHEVKCQGKPLAGIYRKREEKRNAGNAVRSAMKSEEQKIKDARKGPLVPFPNQKSEAAEPPKTPPSSCDSTNAAIAKQALKKPIKGKQAPRKKAQGKTQQNRKLTDFYPVRRSSRKSKAELQSEERKRIDELIESGKEEGMKIDLIDGKGRGVIATKQFSRGDFVVEYHGDLIEITDAKKREALYAQDPSTGCYMYYFQYLSKTYCVDATRETNRLGRLINHSKCGNCQTKLHDIDGVPHLILIASRDIAAGEELLYDYGDRSKASIEAHPWLKH
As to B1, the binding result is reported as “binds”.

Source of the values: publication PMC8266168.
